Drawing on PMC12669770, this text covers binding for two molecules.

These are yes or no findings as the source states them, for the method shown. Binding seen in cells or lysates may run through a third protein. Here binding means that the protein was enriched with, or labelled near, the bait; the list need not be complete.

Assay [1] addresses V5-miniTurbo-mCherry-p62 (human), Q13501. Nature of the assay: proximity labelling; miniTurbo-mCherry-p62 stably expressed in RPE1 cells, with or without 72 h ATG5 siRNA knock-down; 500 µM biotin and 5 mM ATP for 2 h at 37 °C; streptavidin pull-down and mass spectrometry; proteins found in the mCherry-p62 control removed. The conditions noted are these: remark: other sources report otherwise.

Assay [2] concerns the target V5-miniTurbo-mCherry-p62 (human) (UniProt Q13501). The assay is described as above.

B1: ATG13, O75143 1-517 (protein)
chain: METDLNSQDRKDLDKFIKFFALKTVQVIVQARLGEKICTRSSSSPTGSDWFNLAIKDIPEVTHEAKKALAGQLPAVGRSMCVEISLKTSEGDSMELEIWCLEMNEKCDKEIKVSYTVYNRLSLLLKSLLAITRVTPAYRLSRKQGHEYVILYRIYFGEVQLSGLGEGFQTVRVGTVGTPVGTITLSCAYRINLAFMSTRQFERTPPIMGIIIDHFVDRPYPSSSPMHPCNYRTAGEDTGVIYPSVEDSQEVCTTSFSTSPPSQLSSSRLSYQPAALGVGSADLAYPVVFAAGLNATHPHQLMVPGKEGGVPLAPNQPVHGTQADQERLATCTPSDRTHCAATPSSSEDTETVSNSSEGRASPHDVLETIFVRKVGAFVNKPINQVTLTSLDIPFAMFAPKNLELEDTDPMVNPPDSPETESPLQGSLHSDGSSGGSSGNTHDDFVMIDFKPAFSKDDILPMDLGTFYREFQNPPQLSSLSIDIGAQSMAEDLDSLPEKLAVHEKNVREFDAFVETLQ
As to B1, in assay [1], the binding result is given as “binds”.

B2: ZFYVE1/DFCP1 (protein, UniProt Q9HBF4 1-777)
chain: MSAQTSPAEKGLNPGLMCQESYACSGTDEAIFECDECCSLQCLRCEEELHRQERLRNHERIRLKPGHVPYCDLCKGLSGHLPGVRQRAIVRCQTCKINLCLECQKRTHSGGNKRRHPVTVYNVSNLQESLEAEEMDEETKRKKMTEKVVSFLLVDENEEIQVTNEEDFIRKLDCKPDQHLKVVSIFGNTGDGKSHTLNHTFFYGREVFKTSPTQESCTVGVWAAYDPVHKVAVIDTEGLLGATVNLSQRTRLLLKVLAISDLVIYRTHADRLHNDLFKFLGDASEAYLKHFTKELKATTARCGLDVPLSTLGPAVIIFHETVHTQLLGSDHPSEVPEKLIQDRFRKLGRFPEAFSSIHYKGTRTYNPPTDFSGLRRALEQLLENNTTRSPRHPGVIFKALKALSDRFSGEIPDDQMAHSSFFPDEYFTCSSLCLSCGVGCKKSMNHGKEGVPHEAKSRCRYSHQYDNRVYTCKACYERGEEVSVVPKTSASTDSPWMGLAKYAWSGYVIECPNCGVVYRSRQYWFGNQDPVDTVVRTEIVHVWPGTDGFLKDNNNAAQRLLDGMNFMAQSVSELSLGPTKAVTSWLTDQIAPAYWRPNSQILSCNKCATSFKDNDTKHHCRACGEGFCDSCSSKTRPVPERGWGPAPVRVCDNCYEARNVQLAVTEAQVDDEGGTLIARKVGEAVQNTLGAVVTAIDIPLGLVKDAARPAYWVPDHEILHCHNCRKEFSIKLSKHHCRACGQGFCDECSHDRRAVPSRGWDHPVRVCFNCNKKPGDL
Turning to B2, the binding entry in assay [2] was “binds”.
